Results taken from patent publication US12515963B2, “Nanoparticle composition and method of inhibiting ovarian cancer cell viability” (priority 2019, dated 2026).

Key:
[1] = test system: E. faecalis A (vancomycin resistant Enterococcus type Van-A); experiment: Minimum inhibitory concentration (MIC); format: cell-based
Description: (§1) Minimum inhibitory concentration (MIC) was determined to assess the antibacterial potential of the compositions of Example 6 in microorganisms. MIC is the lowest concentration of a drug which prevents visible growth of bacterium. The tested panel of microorganisms represented a very broad spectrum of antibiotic resistant microorganisms. Sample 4-1 and Tetracycline (as control) were tested against multidrug-resistant Salmonella typhimurium DT 104. Sample 4-2 and Amoxicillin (as control) were tested against Bacillus subtilis. Sample 4-3 and Vancomycin (as control) were tested against vancomycin resistant Enterococcus type Van-A and also vancomycin resistant Leuconostoc mesenteroides VKPM B-4177. In all test conditions monometallic silver nanoparticle composition with Miramistin® alone (obtained using a process known in the art) were used as a control. This composition is referred to as “Ag-NPs-Myramistin in Table 8.

[2] = test system: E. faecium A (vancomycin resistant Enterococcus type Van-A); experiment: Minimum inhibitory concentration (MIC); format: cell-based
Description: as §1

Q: What does the source list for `CN[C@H](CC(C)C)C(=O)N[C@H]1C(=O)N[C@@H](CC(N)=O)C(=O)N[C@H]2C(=O)N[C@H]3C(=O)N[C@H](C(=O)N[C@H](C(=O)O)c4cc(O)cc(O)c4-c4cc3ccc4O)[C@H](O)c3ccc(c(Cl)c3)Oc3cc2cc(c3O[C@@H]2O[C@H](CO)[C@@H](O)[C@H](O)[C@H]2O[C@H]2C[C@](C)(N)[C@H](O)[C@H](C)O2)Oc2ccc(cc2Cl)[C@H]1O` [Vancomycin]?
A: MIC [1]: > 128 µg/mL; MIC [2]: > 128 µg/mL
